Reference: article PMC1817651, “Ets-2 and C/EBP-beta are important mediators of ovine trophoblast Kunitz domain protein-1 gene expression in trophoblast”
Results are given in words; binding and its absence hold for the method and conditions named. Binding seen in cells or lysates may run through a third protein. Some entries that bind do so weakly or less than the wild type.

Chains of the proteins cited; added tags and fusions are not shown.
UniProt P17676: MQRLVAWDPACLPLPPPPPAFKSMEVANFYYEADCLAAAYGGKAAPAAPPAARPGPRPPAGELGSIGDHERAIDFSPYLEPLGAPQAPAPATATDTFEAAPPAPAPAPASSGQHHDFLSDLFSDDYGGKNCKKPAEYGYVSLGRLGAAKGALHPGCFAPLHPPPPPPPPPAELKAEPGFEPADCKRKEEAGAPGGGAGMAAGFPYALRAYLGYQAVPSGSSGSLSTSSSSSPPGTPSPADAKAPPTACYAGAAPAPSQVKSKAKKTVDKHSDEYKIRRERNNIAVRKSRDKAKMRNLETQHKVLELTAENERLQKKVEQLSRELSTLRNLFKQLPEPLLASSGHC

Target: CCAAT/enhancer binding protein-beta (human (endogenous in JEG-3)) (UniProt P17676)
Assay: pull-down; biotinylated ds oligonucleotide of the C/EBP-binding element (-117 to -109 of the Tkdp-1 promoter) on immobilized streptavidin as bait; 0.5 to 1.0 mg JEG-3 cell extract, 25 mM Tris-HCl pH 7.5, 150 mM NaCl, 0.5% Triton X-100, 4°C overnight; western blots with C/EBP-β and Ets-2 antibodies

B1: Ets-2 (protein, UniProt P15036 1-469)
chain: MNDFGIKNMDQVAPVANSYRGTLKRQPAFDTFDGSLFAVFPSLNEEQTLQEVPTGLDSISHDSANCELPLLTPCSKAVMSQALKATFSGFKKEQRRLGIPKNPWLWSEQQVCQWLLWATNEFSLVNVNLQRFGMNGQMLCNLGKERFLELAPDFVGDILWEHLEQMIKENQEKTEDQYEENSHLTSVPHWINSNTLGFGTEQAPYGMQTQNYPKGGLLDSMCPASTPSVLSSEQEFQMFPKSRLSSVSVTYCSVSQDFPGSNLNLLTNNSGTPKDHDSPENGADSFESSDSLLQSWNSQSSLLDVQRVPSFESFEDDCSQSLCLNKPTMSFKDYIQERSDPVEQGKPVIPAAVLAGFTGSGPIQLWQFLLELLSDKSCQSFISWTGDGWEFKLADPDEVARRWGKRKNKPKMNYEKLSRGLRYYYDKNIIHKTSGKRYVYRFVCDLQNLLGFTPEELHAILGVQPDTED
For B1, the binding was “binds”.
